{
  "source": "patent US4851426A",
  "about": "“Ethoxycarbonyloxy ethyl esters of non-steroidal anti-inflammatory carboxylic acids and pharmaceutical compositions thereof” (Teva Pharmaceutical Industries, Ltd., priority 1982, dated 1989)",
  "assay": "Ulcerogenicity",
  "settings": "rat, in vivo, dose causing UI50, female rats, oral, read-out: UD50",
  "experimental": "Methods: Six groups of 10 female Charles River rats weighing 170-230 g were used for each drug. […] Drugs were freshly suspended in water with 1% carboxymethyl cellulose and administered by stomach tube. Rats treated were sacrificed 5 hours after oral gavage. Ulcers were evaluated under a magnifying lens, after the stomach had been dissected out, opened along the lesser curvature and rinsed.\nUlcer index (UI) for each group was calculated as the mean sum of the lengths of the individual lesions in each rat.\nApparent maximal ulcerogenicity was calculated from regression analysis of the ascending parts of each dose-response curve.",
  "data": [
    {"smiles": "COc1ccc2cc([C@H](C)C(=O)O)ccc2c1", "note": "[Naproxen, reference compound]", "values": [
      {"measurement": "TD50 at 5 h", "value": 170, "unit": "µmol/kg"}
    ]}
  ]
}
